Source: paper PMC11574364
Construct, isoform or probe ends are uncertain for at least one entry. For some assays here: Where a protein sequence is shown, tags need not be part of it.

Assays:
Test in all cases: human ORF protein microarray
DNASE1L1 (Homo sapiens) = biological target: T1, DNASE1L1 (Homo sapiens) (UniProt P49184); conditions: 5' phosphate; Domain array: 20 mM Tris-HCl pH 7.4, 200 mM KCl, 0.2 mM EDTA, 0.05% NP40, 2 ug/ul heparin, overnight 4 C. ORF array: PBS pH 7.0 with RNase inhibitor, 100 ng RNA, 1 h.; recombinant protein; protein details: N-terminal GST-6xHis; label: internal DY647 at G18; letters put together from the description
T1 sequence (looked up, limits assumed): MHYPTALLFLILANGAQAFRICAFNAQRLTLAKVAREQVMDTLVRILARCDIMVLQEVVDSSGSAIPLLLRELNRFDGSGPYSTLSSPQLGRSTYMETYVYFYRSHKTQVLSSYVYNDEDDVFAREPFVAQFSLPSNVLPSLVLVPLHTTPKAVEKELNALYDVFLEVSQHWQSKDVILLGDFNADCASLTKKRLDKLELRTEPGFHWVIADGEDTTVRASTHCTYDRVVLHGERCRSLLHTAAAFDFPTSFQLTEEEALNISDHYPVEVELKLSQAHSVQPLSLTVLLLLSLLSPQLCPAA

SPANXC (Homo sapiens) = SPANXC (Homo sapiens) (UniProt Q9NY87); conditions: 5' phosphate; Domain array: 20 mM Tris-HCl pH 7.4, 200 mM KCl, 0.2 mM EDTA, 0.05% NP40, 2 ug/ul heparin, overnight 4 C. ORF array: PBS pH 7.0 with RNase inhibitor, 100 ng RNA, 1 h.; recombinant protein; protein details: N-terminal GST-6xHis; label: internal DY647 at G18; letters put together from the description
FOLH1 (Homo sapiens) = FOLH1 (Homo sapiens) (UniProt Q04609); conditions: 5' phosphate; Domain array: 20 mM Tris-HCl pH 7.4, 200 mM KCl, 0.2 mM EDTA, 0.05% NP40, 2 ug/ul heparin, overnight 4 C. ORF array: PBS pH 7.0 with RNase inhibitor, 100 ng RNA, 1 h.; recombinant protein; protein details: N-terminal GST-6xHis; label: internal DY647 at G18; letters put together from the description
GATS (Homo sapiens) = biological target: T2, GATS (Homo sapiens) (UniProt Q8NAP1); conditions: 5' phosphate; Domain array: 20 mM Tris-HCl pH 7.4, 200 mM KCl, 0.2 mM EDTA, 0.05% NP40, 2 ug/ul heparin, overnight 4 C. ORF array: PBS pH 7.0 with RNase inhibitor, 100 ng RNA, 1 h.; recombinant protein; protein details: N-terminal GST-6xHis; label: internal DY647 at G18; letters put together from the description
T2 sequence (looked up, limits assumed): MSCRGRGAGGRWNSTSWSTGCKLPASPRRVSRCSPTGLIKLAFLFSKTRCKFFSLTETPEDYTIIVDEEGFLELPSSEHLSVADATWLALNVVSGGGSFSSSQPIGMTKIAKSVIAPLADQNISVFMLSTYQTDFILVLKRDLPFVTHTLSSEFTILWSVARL

DUOXA1 (Homo sapiens) = biological target: T3, DUOXA1 (Homo sapiens) (UniProt Q1HG43); conditions: 5' phosphate; Domain array: 20 mM Tris-HCl pH 7.4, 200 mM KCl, 0.2 mM EDTA, 0.05% NP40, 2 ug/ul heparin, overnight 4 C. ORF array: PBS pH 7.0 with RNase inhibitor, 100 ng RNA, 1 h.; recombinant protein; protein details: N-terminal GST-6xHis; label: internal DY647 at G18; letters put together from the description
T3 sequence (looked up, limits assumed): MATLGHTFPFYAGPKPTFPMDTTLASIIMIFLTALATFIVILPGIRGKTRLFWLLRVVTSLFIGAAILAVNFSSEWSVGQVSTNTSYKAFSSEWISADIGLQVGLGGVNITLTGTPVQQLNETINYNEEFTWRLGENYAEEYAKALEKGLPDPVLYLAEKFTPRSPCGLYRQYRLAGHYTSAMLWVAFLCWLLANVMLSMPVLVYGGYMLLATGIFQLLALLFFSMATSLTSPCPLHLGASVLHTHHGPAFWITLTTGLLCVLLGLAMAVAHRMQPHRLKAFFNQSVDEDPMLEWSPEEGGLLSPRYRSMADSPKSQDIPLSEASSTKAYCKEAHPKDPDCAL

SRP9 (Homo sapiens) = biological target: T4, SRP9 (Homo sapiens) (UniProt P49458); conditions: 5' phosphate; Domain array: 20 mM Tris-HCl pH 7.4, 200 mM KCl, 0.2 mM EDTA, 0.05% NP40, 2 ug/ul heparin, overnight 4 C. ORF array: PBS pH 7.0 with RNase inhibitor, 100 ng RNA, 1 h.; recombinant protein; protein details: N-terminal GST-6xHis; label: internal DY647 at G18; letters put together from the description
T4 sequence (looked up, limits assumed): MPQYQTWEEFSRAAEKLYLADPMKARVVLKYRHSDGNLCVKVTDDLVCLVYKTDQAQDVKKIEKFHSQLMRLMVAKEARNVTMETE

ZCD1 (Homo sapiens) = ZCD1 (Homo sapiens) (UniProt Q9NZ45); conditions: 5' phosphate; Domain array: 20 mM Tris-HCl pH 7.4, 200 mM KCl, 0.2 mM EDTA, 0.05% NP40, 2 ug/ul heparin, overnight 4 C. ORF array: PBS pH 7.0 with RNase inhibitor, 100 ng RNA, 1 h.; recombinant protein; protein details: N-terminal GST-6xHis; label: internal DY647 at G18; letters put together from the description
ZNF18 (Homo sapiens) = biological target: T5, ZNF18 (Homo sapiens) (UniProt P17022); conditions: 5' phosphate; Domain array: 20 mM Tris-HCl pH 7.4, 200 mM KCl, 0.2 mM EDTA, 0.05% NP40, 2 ug/ul heparin, overnight 4 C. ORF array: PBS pH 7.0 with RNase inhibitor, 100 ng RNA, 1 h.; recombinant protein; protein details: N-terminal GST-6xHis; label: internal DY647 at G18; letters put together from the description
T5 sequence (looked up, limits assumed): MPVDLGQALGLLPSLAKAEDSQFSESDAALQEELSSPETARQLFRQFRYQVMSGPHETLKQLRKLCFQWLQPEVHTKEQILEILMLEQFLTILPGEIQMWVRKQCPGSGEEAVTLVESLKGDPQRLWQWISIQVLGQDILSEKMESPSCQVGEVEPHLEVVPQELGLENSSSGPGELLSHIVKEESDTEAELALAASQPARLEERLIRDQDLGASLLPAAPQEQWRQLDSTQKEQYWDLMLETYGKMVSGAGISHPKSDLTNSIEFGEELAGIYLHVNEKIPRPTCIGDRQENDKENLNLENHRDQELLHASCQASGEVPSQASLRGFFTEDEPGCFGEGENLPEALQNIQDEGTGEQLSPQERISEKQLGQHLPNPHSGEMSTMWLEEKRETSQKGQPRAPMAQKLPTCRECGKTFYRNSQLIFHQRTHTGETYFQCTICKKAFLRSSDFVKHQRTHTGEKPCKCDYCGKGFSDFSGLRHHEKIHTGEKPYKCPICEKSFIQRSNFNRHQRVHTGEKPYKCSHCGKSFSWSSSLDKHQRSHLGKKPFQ

TUSC4 (Homo sapiens) = TUSC4 (Homo sapiens) (UniProt Q8WTW4); conditions: 5' phosphate; Domain array: 20 mM Tris-HCl pH 7.4, 200 mM KCl, 0.2 mM EDTA, 0.05% NP40, 2 ug/ul heparin, overnight 4 C. ORF array: PBS pH 7.0 with RNase inhibitor, 100 ng RNA, 1 h.; recombinant protein; protein details: N-terminal GST-6xHis; label: internal DY647 at G18; letters put together from the description
ZNF496 (Homo sapiens) = ZNF496 (Homo sapiens) (UniProt Q96IT1); conditions: 5' phosphate; Domain array: 20 mM Tris-HCl pH 7.4, 200 mM KCl, 0.2 mM EDTA, 0.05% NP40, 2 ug/ul heparin, overnight 4 C. ORF array: PBS pH 7.0 with RNase inhibitor, 100 ng RNA, 1 h.; recombinant protein; protein details: N-terminal GST-6xHis; label: internal DY647 at G18; letters put together from the description
OR4K5 (Homo sapiens) = biological target: T6, OR4K5 (Homo sapiens) (UniProt Q8NGD3); conditions: 5' phosphate; amino-C6 U at position 18; Domain array: 20 mM Tris-HCl pH 7.4, 200 mM KCl, 0.2 mM EDTA, 0.05% NP40, 2 ug/ul heparin, overnight 4 C. ORF array: PBS pH 7.0 with RNase inhibitor, 100 ng RNA, 1 h.; recombinant protein; protein details: N-terminal GST-6xHis; label: internal Cy5 or DY647
T6 sequence (looked up, limits assumed): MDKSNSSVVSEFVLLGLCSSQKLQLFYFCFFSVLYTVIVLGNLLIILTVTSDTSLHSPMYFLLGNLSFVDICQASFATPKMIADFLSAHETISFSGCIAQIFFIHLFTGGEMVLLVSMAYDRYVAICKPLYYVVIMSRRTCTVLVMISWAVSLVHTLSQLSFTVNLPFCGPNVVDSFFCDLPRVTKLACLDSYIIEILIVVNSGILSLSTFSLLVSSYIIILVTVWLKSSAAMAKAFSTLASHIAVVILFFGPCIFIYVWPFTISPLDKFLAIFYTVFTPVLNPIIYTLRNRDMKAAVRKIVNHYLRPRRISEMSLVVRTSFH

ABCG1 (Homo sapiens) = ABCG1 (Homo sapiens) (UniProt P45844); conditions: 5' phosphate; amino-C6 U at position 18; Domain array: 20 mM Tris-HCl pH 7.4, 200 mM KCl, 0.2 mM EDTA, 0.05% NP40, 2 ug/ul heparin, overnight 4 C. ORF array: PBS pH 7.0 with RNase inhibitor, 100 ng RNA, 1 h.; recombinant protein; protein details: N-terminal GST-6xHis; label: internal Cy5 or DY647
DNAJB8 (Homo sapiens) = biological target: T7, DNAJB8 (Homo sapiens) (UniProt Q8NHS0); conditions: 5' phosphate; amino-C6 U at position 18; Domain array: 20 mM Tris-HCl pH 7.4, 200 mM KCl, 0.2 mM EDTA, 0.05% NP40, 2 ug/ul heparin, overnight 4 C. ORF array: PBS pH 7.0 with RNase inhibitor, 100 ng RNA, 1 h.; recombinant protein; protein details: N-terminal GST-6xHis; label: internal Cy5 or DY647
T7 sequence (looked up, limits assumed): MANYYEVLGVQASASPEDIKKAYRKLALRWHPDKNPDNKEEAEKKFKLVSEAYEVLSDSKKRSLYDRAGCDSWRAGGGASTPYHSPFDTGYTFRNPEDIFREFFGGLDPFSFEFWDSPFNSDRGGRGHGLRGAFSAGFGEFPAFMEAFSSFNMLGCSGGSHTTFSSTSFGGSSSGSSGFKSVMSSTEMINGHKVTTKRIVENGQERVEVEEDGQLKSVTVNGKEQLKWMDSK

C8orf32 (Homo sapiens) = C8orf32 (Homo sapiens) (UniProt Q96HA8); conditions: 5' phosphate; amino-C6 U at position 18; Domain array: 20 mM Tris-HCl pH 7.4, 200 mM KCl, 0.2 mM EDTA, 0.05% NP40, 2 ug/ul heparin, overnight 4 C. ORF array: PBS pH 7.0 with RNase inhibitor, 100 ng RNA, 1 h.; recombinant protein; protein details: N-terminal GST-6xHis; label: internal Cy5 or DY647

Measured: binding result

CAGUGCAAUGAUGAAAGGGCAU [miR-130b (internal labeling)]
binds: DNASE1L1 (Homo sapiens) | SPANXC (Homo sapiens) | FOLH1 (Homo sapiens) | GATS (Homo sapiens) | DUOXA1 (Homo sapiens)

UAGCUUAUCAGACUGAUGUUGA [miR-21 (internal labeling)]
binds: SRP9 (Homo sapiens) | ZCD1 (Homo sapiens) | ZNF18 (Homo sapiens) | TUSC4 (Homo sapiens) | ZNF496 (Homo sapiens)

UGAGGUAGUAGGUUGUGUGGUU [let-7b (internal labeling)]
binds: OR4K5 (Homo sapiens) | ABCG1 (Homo sapiens) | DNAJB8 (Homo sapiens) | C8orf32 (Homo sapiens)
